# Library screen at single concentrations

Sequences of proteins named here, by UniProt entry; tags and fusion partners are left off. Residues count along the entry.
UniProt P9WPC5, whole entry: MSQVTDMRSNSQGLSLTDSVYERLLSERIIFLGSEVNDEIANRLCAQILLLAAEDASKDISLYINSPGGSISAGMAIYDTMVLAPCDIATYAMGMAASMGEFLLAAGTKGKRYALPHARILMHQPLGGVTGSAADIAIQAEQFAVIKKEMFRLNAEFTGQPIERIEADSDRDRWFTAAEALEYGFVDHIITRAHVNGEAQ
UniProt P9WPC3, whole entry partner: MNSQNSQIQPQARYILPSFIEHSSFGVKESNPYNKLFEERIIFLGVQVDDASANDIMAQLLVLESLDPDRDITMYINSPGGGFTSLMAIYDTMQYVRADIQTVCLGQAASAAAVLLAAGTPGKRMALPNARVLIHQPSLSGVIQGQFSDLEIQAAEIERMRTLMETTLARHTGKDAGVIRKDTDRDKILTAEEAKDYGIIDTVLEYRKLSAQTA
UniProt Q8IDJ8, 1-583: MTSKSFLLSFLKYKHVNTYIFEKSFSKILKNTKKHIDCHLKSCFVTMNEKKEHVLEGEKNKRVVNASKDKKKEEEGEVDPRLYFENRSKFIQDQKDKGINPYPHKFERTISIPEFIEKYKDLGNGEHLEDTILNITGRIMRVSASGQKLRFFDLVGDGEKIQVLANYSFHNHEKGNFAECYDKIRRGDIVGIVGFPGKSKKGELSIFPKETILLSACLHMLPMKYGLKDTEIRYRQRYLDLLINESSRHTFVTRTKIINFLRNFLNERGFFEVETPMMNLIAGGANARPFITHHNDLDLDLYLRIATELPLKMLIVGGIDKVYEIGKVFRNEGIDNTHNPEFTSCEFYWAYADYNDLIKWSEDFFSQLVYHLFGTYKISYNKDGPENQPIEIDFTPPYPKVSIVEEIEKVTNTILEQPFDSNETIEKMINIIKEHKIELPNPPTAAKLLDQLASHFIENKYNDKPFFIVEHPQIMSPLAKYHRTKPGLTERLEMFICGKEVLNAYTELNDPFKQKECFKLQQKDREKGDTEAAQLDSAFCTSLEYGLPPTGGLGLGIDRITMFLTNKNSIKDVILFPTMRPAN
UniProt P9WFT3, whole entry: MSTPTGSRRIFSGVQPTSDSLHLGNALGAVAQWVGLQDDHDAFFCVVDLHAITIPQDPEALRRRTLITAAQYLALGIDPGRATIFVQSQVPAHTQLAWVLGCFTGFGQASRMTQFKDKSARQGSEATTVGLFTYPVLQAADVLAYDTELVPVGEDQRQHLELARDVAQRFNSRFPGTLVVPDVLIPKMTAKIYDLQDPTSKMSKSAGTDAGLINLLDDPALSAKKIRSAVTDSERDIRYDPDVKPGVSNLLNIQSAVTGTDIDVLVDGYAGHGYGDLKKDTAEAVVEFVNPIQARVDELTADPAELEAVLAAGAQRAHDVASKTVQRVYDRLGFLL
UniProt A4I591, 1-473: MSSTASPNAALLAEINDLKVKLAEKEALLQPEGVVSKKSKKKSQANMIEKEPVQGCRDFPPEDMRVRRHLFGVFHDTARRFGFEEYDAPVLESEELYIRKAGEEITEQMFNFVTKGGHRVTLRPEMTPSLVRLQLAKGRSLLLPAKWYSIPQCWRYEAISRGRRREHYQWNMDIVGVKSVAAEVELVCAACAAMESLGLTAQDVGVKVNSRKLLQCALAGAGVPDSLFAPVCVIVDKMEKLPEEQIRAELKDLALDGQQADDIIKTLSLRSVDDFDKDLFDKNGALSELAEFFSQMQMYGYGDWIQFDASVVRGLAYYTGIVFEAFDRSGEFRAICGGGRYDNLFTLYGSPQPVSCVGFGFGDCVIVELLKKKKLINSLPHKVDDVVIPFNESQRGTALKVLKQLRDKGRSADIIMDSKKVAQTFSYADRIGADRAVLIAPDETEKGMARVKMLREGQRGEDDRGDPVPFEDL
UniProt Q4DA54, 1-478: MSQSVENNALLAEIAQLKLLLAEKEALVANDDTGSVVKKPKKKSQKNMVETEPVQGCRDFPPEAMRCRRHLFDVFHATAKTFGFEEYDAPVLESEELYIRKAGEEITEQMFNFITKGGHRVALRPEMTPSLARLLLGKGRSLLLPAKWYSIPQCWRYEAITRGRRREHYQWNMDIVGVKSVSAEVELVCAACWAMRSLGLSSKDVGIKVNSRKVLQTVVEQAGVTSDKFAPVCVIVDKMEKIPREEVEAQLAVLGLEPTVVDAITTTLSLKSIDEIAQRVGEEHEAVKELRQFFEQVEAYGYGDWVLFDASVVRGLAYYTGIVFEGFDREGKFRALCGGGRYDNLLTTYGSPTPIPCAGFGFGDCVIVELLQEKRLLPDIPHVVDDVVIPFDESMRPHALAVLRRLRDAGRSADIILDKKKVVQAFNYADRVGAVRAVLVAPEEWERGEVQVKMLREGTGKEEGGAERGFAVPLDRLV

Results are given as percent effect.
The record does not define 0% and 100%; most values in the screen are far below 50% and negative numbers occur (in some assays of this library far below -100).
This is an unselected part of the compounds tested.
Two or more numbers in one place are separate tests of the same structure; such repeats can differ widely.
A dash means the value is not listed here; it may have been measured.

A: 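ClpP1P2, Mycobacterium tuberculosis (UniProt P9WPC5 and UniProt P9WPC3). Protease assay of ClpP1P2, read by the AMC dye that it sets free. Compounds at 50 µM. Direction is inferred from only a few compounds that gave an IC50; most scored high, so higher reads as stronger inhibition. Most other retested compounds had strongly negative values. About 69,000 compounds were tested under these conditions; 0.015% (about 10) showed 50% or more at least once.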
B: 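Enzyme assay of the cytosolic lysyl-tRNA synthetase in 384-well plates, read by luminescence. Target: Lysine-tRNA ligase, Plasmodium falciparum 3D7 (UniProt Q8IDJ8). Compounds at 30 µM. Higher reads as stronger inhibition, judged from the few compounds that gave an IC50. Of about 69,000 compounds tested this way, about 49 (0.071%) reached 50% or more in at least one test.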
C: 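Enzyme assay of tryptophanyl-tRNA synthetase; the read-out is not stated. Target: Tryptophan-tRNA ligase, Mycobacterium tuberculosis (UniProt P9WFT3). Tested at 10 µM. Higher most likely means stronger inhibition; the record gives no direction and few retests gave an IC50. Size under these conditions: about 65,000 compounds, about 64 of them at 50% or above in at least one test.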
D: 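Histidine-tRNA ligase, Leishmania infantum (UniProt A4I591). Enzyme assay of histidyl-tRNA synthetase; the read-out is not stated. Tested at 30 µM. The record gives no direction; compounds that gave an IC50 in retests scored well above the rest, so higher reads as stronger inhibition. The assay is labelled LdHisRS but filed under L. infantum. Size under these conditions: about 69,000 compounds, about 410 of them at 50% or above in at least one test.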
E: 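Enzyme assay of histidyl-tRNA synthetase; the read-out is not stated. Target: Histidine-tRNA ligase, Trypanosoma cruzi CL Brener (UniProt Q4DA54). Compounds at 30 µM. Higher reads as stronger inhibition (inferred: compounds with an IC50 in retests scored well above the rest). About 69,000 compounds were tested under these conditions; 0.045% (about 31) showed 50% or more at least once.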
F: 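Cell assay of Leishmania donovani living inside macrophages; the read-out is not stated. Compounds at 30 µM. The record gives no direction; compounds that gave an IC50 in retests scored well above the rest, so higher reads as stronger inhibition. About 69,000 compounds were tested under these conditions; 1.5% (about 1,000) showed 50% or more at least once.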

structure,A,B,C,D,E,F
Cc1noc(CCCC(=O)Nc2cc(C(F)(F)F)c[nH]c2=O)n1,3.23,4.606,-1.632,14.52,13.79,33.51
CCOC(=O)N1CC2(CCNCC2)c2cc(Cl)ccc21.Cl,-,-,-,-,-,67.51
COc1ccccc1N1CCN(c2nc(N)nc3[nH]cnc23)CC1,-5.145,0.8831,2.412,21.74,9.901,38.69
COc1nn(C)cc1C(=O)NCC1(O)CCOCC1,-0.2746,3.126,1.485,24.39,7.212,11.11
CC(C)(C)CC(=O)Nc1cnn(-c2ccccc2S(C)(=O)=O)c1,14.66,2.79,0.4078,24.14,12.37,13.51
CCN1CCCC(c2nc(O)c3cc(C)ccc3n2)C1 (centres unmarked),8.614,5.345,-7.001,1.379,2.959,-0.973
CC(C)c1cc(C(=O)NCC2CCCN(c3ncccn3)C2)n(C)n1 (centres unmarked),-1.759,0.9763,-0.3028,12.94,6.03,34.41
COc1nc2c(cc1C(=O)N1CCCC1c1ccccn1)CCC2 (centres unmarked),-11.55,-0.6392,1.607,20.78,1.212,15.04
Cn1nccc1-c1cc(C2CCN(S(C)(=O)=O)CC2)ccn1,-7.567,0.6685,-2.196,7.586,6.844,12.12
COc1cccc(CCNC(=O)CN2CCCC2c2noc(C)n2)c1 (centres unmarked),-5.341,1.271,-0.6803,9.231,1.916,6.376
Cc1cnc(C(=O)N2C[C@H]3CC[C@@H]2CN(S(=O)(=O)N(C)C)C3)cn1,-6.982,1.617,0.4968,20.97,-22.99,-
O=C(NCc1cnc2n1CCN(Cc1nccs1)C2)c1ccno1,-3.238,11.65,-0.4088,28,5.155,-
COCCO[C@H]1CCN(Cc2ccoc2)[C@H]1Cc1cccnc1,3.162,1.875,-1.724,9.722,6.542,8.187
NCc1cn(CC2CCCN(C(=O)NCCc3ccc(F)cc3)C2)nn1 (centres unmarked),-23.88,-5.302,-0.301,9.6,3.922,-47.18
CN(Cc1ccc(CCC(C)(C)O)cc1)Cc1cccnc1,-6.962,3.177,-1.89,14.75,6.061,31.56
COCC1CN(C(=O)Nc2cc(Cl)cc(Cl)c2)CCO1 (centres unmarked),0.57,1.991,4.461,2.632,1.724,-6.467
Cc1ccc(-c2cc(N)c(=O)n(CC(=O)NC3CCCCC3)n2)s1,1.487,2.342,-5.268,8.333,-11.35,32.64
Cc1ccccc1CSc1ncc(Br)c(C(=O)O)n1,-14.56,1.203,-3.732,-6.522,-4,-10.2
CCOC(=O)N1CCN(c2nc(NC3CC3)c3ccccc3n2)CC1.Cl,-,-,-,-,-,-22.7
Cc1cnn(CC2CCCCN2C(=O)c2ccc3c(c2)nnn3C)c1 (centres unmarked),1.125,8.955,5.303,15.66,9.756,-69.87
O=C(NCCCn1ccnc1)NCC(c1ccco1)N1CCCCC1 (centres unmarked),-25.9,0.8805,-3.636,15.04,6.706,23.34
CC(C)n1cnnc1CCNCc1cn(CCC(N)=O)c2ccccc12,1.995,-0.1345,5.263,20,5.195,32.43
O=C(NCCNC(=O)c1scnc1Cl)c1ccccc1Cl,-28.17,1.429,-4.827,5.172,-43.5,4.077
COc1cccc(CSc2nnc(C)n2CC(N)=O)c1,0.3346,4.895,3.342,17.28,4.294,-13.29
c1ccc(CN2CCN3C[C@H](Oc4cccnc4)C[C@H]3C2)nc1,-9.355,5.132,-3.255,17.14,3.922,-
CC1CCCN(C(=O)c2cn(-c3ccc(C(F)(F)F)cn3)nn2)C1 (centres unmarked),3.437,2.606,5.925,-2.632,8.38,-14.69
Cc1cc2ccccc2n1CCC(=O)NCCN(C)S(C)(=O)=O,-18.97,1.888,0.3819,20.99,4.018,27.41
COC(=O)c1cccc(C(=O)N2CCCC(n3cncn3)C2)c1 (centres unmarked),-6.752,0.8816,-4.875,8.772,3.152,31.38
CN(CCCNC(=O)C1CCCN(C(N)=O)C1)S(C)(=O)=O (centres unmarked),12.92,3.164,4.839,21.52,7.328,4.871
Cc1cnc(N2CCC3(CCN(CC4CCCC4)C3=O)CC2)nc1.O=C(O)C(F)(F)F,-,-,-,-,-,-0.7845
Cc1ccc(S(=O)(=O)NC(=O)CCc2ccco2)cc1N(C)C,23.45,-2.95,-3.181,-1.149,-3.093,22.75
CN(C)Cc1nn(C)c2c1CN(C(=O)Nc1ccc(F)cc1)C2,1.608,1.972,-4.584,11.11,10.16,-0.8279
CN(C)[C@@H]1CCN(C(=O)NC2CCCC2)[C@H]1Cc1ccncc1,12.06,2.898,-3.968,13.16,5.747,-
CC1(C)[C@H]2CC=C(CN3CCCn4nc(C(=O)O)cc4C3)[C@@H]1C2,-7.963,-0.2916,7.043,14.89,10.98,-
COCCN1C[C@H]2CCN(C(C)=O)CC[C@H]2S1(=O)=O,3.635,8.665,-1.834,13.79,0,-
O=C(c1c[nH]c(=O)[nH]c1=O)N1CCCC(c2cnccn2)C1 (centres unmarked),-4.954,2.553,-,10.14,13.19,8.773 and 19.26
Cc1nc(COCc2cnc3n2CCN(C(=O)C2CC2)C3C)cs1 (centres unmarked),-8.348,3.37,9.015,27.78,-1.493,-8.645
O=C(O)C(F)(F)F.[H][C@]12CCN(CC(C)C)CC[C@@]1([H])S(=O)(=O)CCN2C(=O)c1ccccc1,-,-,-,-,-,-0.2024
Cc1ccsc1C(=O)NCCCn1nc2ccccn2c1=O,3.866,8.52,-1.652,12.31,5.747,2.612
CCN(Cc1ccc2c(c1)OCO2)C(=O)c1cccnc1O,-34.21,2.653,-2.323,12.5,2.959,7.711
Cc1noc(C)c1CCC(=O)N[C@@H]1CC[C@@H](Oc2cccnc2)[C@@H]1O,2.299,1.525,0.2038,14.08,8.462,25.44
Cc1noc(C)c1CN(C)Cc1csc(-c2ccccc2F)n1,-14.77,8.492,-4.907,9.091,-0.4926,12.41
O=C(O)[C@@H]1OCC(=O)N(Cc2cccc(Cl)c2)[C@@H]1c1ccccc1,-8.575,-0.9461,-3.594,2.857,5.747,26.17
Cc1cccc2c1nc(COCC(=O)O)n2-c1ccsc1,3.729,4.935,-0.4244,30,10.23,0.8956
CN(C)c1nccnc1C1CCN(C(=O)C2(C)CCCCN2C)CC1 (centres unmarked),-10.5,1.488,2.154,6.993,2.26,-39.89
CNC(=O)Cc1noc(Cc2cccc(Br)c2)n1,-2.032,2.631,-6.983,17.95,2.809,20.07
O=C(Cc1ccc(-n2cccn2)cc1)N1CCCC(n2cccn2)C1 (centres unmarked),3.493,5.579,5.238,24,-2.642,4.571
CNC(=O)c1ccc(CNC(=O)c2cc(C(C)C)n(C)n2)cc1,-4.3,2.789,-0.6173,24.44,3.571,26.93
CCN(CC)CCN(C)Cc1cn(C)nc1-c1ccc2c(c1)OCCO2,-12.11,2.585,0.7508,14.52,-3.509,25.68
COCc1ccc(CNCc2c(C)nn(C)c2N(C)C)cc1,-23.31,-0.8822,3.39,0.8772,2.035,31.37
CCC1CN(CCCNS(C)(=O)=O)c2ccccc2O1 (centres unmarked),6.976,2.986,-3.809,13.49,9.412,-5.028
CN(C)c1nc(-c2ccncc2)nc2c1CCN(C(=O)[C@H](N)CO)C2,5.257,5.417,-6.024,28.77,0,25.01
CC(CNCc1ccncc1)Oc1ccccn1 (centres unmarked),14.89,4.14,0.000009,9.709,0.5464,-
CC(C)NC(=O)[C@@H]1CC[C@@H]2[C@@H](CCN2Cc2ccc3ccccc3n2)O1,-3.191,1.017,1.26,6.838,8.589,-
Cc1cc(N2CCC(n3cc(CN4CCSCC4)nn3)CC2)ccn1,-0.7127,2.533,2.053,17.05,5.952,21.59

3 of the entries, repeated:

* O=C(NCCNC(=O)c1scnc1Cl)c1ccccc1Cl : A: -28.17%; B: 1.429%; C: -4.827%; D: 5.172%; E: -43.5%; F: 4.077%
* O=C(c1c[nH]c(=O)[nH]c1=O)N1CCCC(c2cnccn2)C1 (centres unmarked) : A: -4.954%; B: 2.553%; D: 10.14%; E: 13.19%; F: 8.773% and 19.26%
* COc1cccc(CCNC(=O)CN2CCCC2c2noc(C)n2)c1 (centres unmarked) : A: -5.341%; B: 1.271%; C: -0.6803%; D: 9.231%; E: 1.916%; F: 6.376%

Data taken from ChEMBL document CHEMBL3988442, “University of Dundee, Small-Polar-MMV Screening Library” (2021).